From the supplement of paper PMC8728848
Some of the results follow.

Tests used:
Assay in all cases: glycan array binding signal (z-score within array); higher = stronger binding
Conditions in all cases: glycan notation: IUPAC condensed, linker removed
[1] = biological target: GlcNAc(b1-3)Gal(b1-4)GlcNAc(b1-3)Gal(b1-4)GlcNAc(b1-3)Gal(b1-4)GlcNAc(b1-3)Gal(b1-4)GlcNAc(b1-2)[GlcNAc(b1-3)Gal(b1-4)GlcNAc(b1-3)Gal(b1-4)GlcNAc(b1-3)Gal(b1-4)GlcNAc(b1-3)Gal(b1-4)GlcNAc(b1-6)]Man(a1-6)[GlcNAc(b1-3)Gal(b1-4)GlcNAc(b1-3)Gal(b1-4)GlcNAc(b1-3)Gal(b1-4)GlcNAc(b1-3)Gal(b1-4)GlcNAc(b1-2)Man(a1-3)]Man(b1-4)GlcNAc(b1-4)[Fuc(a1-6)]GlcNAc
Outline: (§1)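 From the Consortium for Functional Glycomics database, 3228 arrays were curated, keeping only those whose protein sequence was available. Binding is given as a within-array Z-score averaged across arrays sharing a protein sequence and across linkers. Negative Z-scores can be read as non-binding.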

[2] = biological target: GlcNAc(b1-3)Gal(b1-4)GlcNAc(b1-3)Gal(b1-4)GlcNAc(b1-3)GalNAc
Outline: as §1

[3] = biological target: GlcNAc(b1-3)Gal(b1-4)GlcNAc(b1-3)GalNAc
Outline: as §1

[4] = biological target: GlcNAc(b1-3)Gal(b1-4)GlcNAc(b1-3)[GlcNAc(b1-3)Gal(b1-4)GlcNAc(b1-3)]GalNAc
Outline: as §1

[5] = biological target: GlcNAc(b1-3)Gal(b1-4)GlcNAc(b1-6)[Gal(b1-3)]GalNAc
Outline: as §1

[6] = biological target: GlcNAc(b1-3)Gal(b1-4)GlcNAc(b1-6)[GlcNAc(b1-3)Gal(b1-3)]GalNAc
Outline: as §1

[7] = biological target: GlcNAc(b1-3)Gal(b1-4)GlcNAc(b1-6)[GlcNAc(b1-3)]Gal(b1-4)GlcNAc
Outline: as §1

[8] = biological target: GlcNAc(b1-3)GalNAc
Outline: as §1

[9] = biological target: GlcNAc(b1-3)Man
Outline: as §1

[10] = biological target: GlcNAc(b1-3)[GlcNAc(b1-4)][GlcNAc(b1-6)]GlcNAc
Outline: as §1

[11] = biological target: GlcNAc(b1-3)[GlcNAc(b1-6)]Gal(b1-4)GlcNAc
Outline: as §1

[12] = biological target: GlcNAc(b1-3)[GlcNAc(b1-6)]GalNAc
Outline: as §1

[13] = biological target: GlcNAc(b1-4)Gal(b1-4)GlcNAc
Outline: as §1

[14] = biological target: GlcNAc(b1-4)GlcNAc
Outline: as §1

[15] = biological target: GlcNAc(b1-4)GlcNAc(b1-4)GlcNAc
Outline: as §1

[16] = biological target: GlcNAc(b1-4)GlcNAc(b1-4)GlcNAc(b1-4)GlcNAc(b1-4)GlcNAc
Outline: as §1

[17] = biological target: GlcNAc(b1-4)GlcNAc(b1-4)GlcNAc(b1-4)GlcNAc(b1-4)GlcNAc(b1-4)GlcNAc
Outline: as §1

[18] = biological target: GlcNAc(b1-4)[GlcNAc(b1-6)]GalNAc
Outline: as §1

[19] = biological target: GlcNAc(b1-6)Gal(b1-4)GlcNAc
Outline: as §1

[20] = biological target: GlcNAc(b1-6)GalNAc
Outline: as §1

[21] = biological target: GlcNAc6S(b1-3)Gal(b1-4)GlcNAc
Outline: as §1

[22] = biological target: Kdn(a2-3)Gal(b1-3)GalNAc
Outline: as §1

[23] = biological target: Kdn(a2-3)Gal(b1-3)GlcNAc
Outline: as §1

[24] = biological target: Kdn(a2-3)Gal(b1-4)Glc
Outline: as §1

[25] = biological target: Kdn(a2-3)Gal(b1-4)GlcNAc
Outline: as §1

[26] = biological target: Kdn(a2-3)Gal(b1-4)[Fuc(a1-3)]GlcNAc
Outline: as §1

[27] = biological target: Kdn(a2-6)Gal(b1-4)GlcNAc
Outline: as §1

[28] = biological target: Man(a1-2)Man(a1-2)Man(a1-3)Man
Outline: as §1

[29] = biological target: Man(a1-2)Man(a1-2)Man(a1-6)[Man(a1-3)]Man
Outline: as §1

[30] = biological target: Man(a1-2)Man(a1-3)Man
Outline: as §1

[31] = biological target: Man(a1-2)Man(a1-3)[Man(a1-2)Man(a1-6)]Man
Outline: as §1

[32] = biological target: Man(a1-2)Man(a1-3)[Man(a1-2)Man(a1-6)]Man(a1-6)[Man(a1-2)Man(a1-2)Man(a1-3)]Man
Outline: as §1

[33] = biological target: Man(a1-2)Man(a1-3)[Man(a1-2)Man(a1-6)]Man(a1-6)[Man(a1-2)Man(a1-2)Man(a1-3)]Man(b1-4)GlcNAc(b1-4)GlcNAc
Outline: as §1

[34] = biological target: Man(a1-2)Man(a1-3)[Man(a1-6)]Man(a1-6)[Man(a1-2)Man(a1-3)]Man(b1-4)GlcNAc(b1-4)GlcNAc
Outline: as §1

[35] = biological target: Man(a1-2)Man(a1-6)[Man(a1-3)]Man(a1-6)[Man(a1-2)Man(a1-2)Man(a1-3)]Man
Outline: as §1

[36] = biological target: Man(a1-2)Man(a1-6)[Man(a1-3)]Man(a1-6)[Man(a1-2)Man(a1-2)Man(a1-3)]Man(b1-4)GlcNAc(b1-4)GlcNAc
Outline: as §1

[37] = biological target: Man(a1-3)[Man(a1-6)]Man
Outline: as §1

[38] = biological target: Man(a1-3)[Man(a1-6)]Man(a1-6)[Man(a1-2)Man(a1-3)]Man(b1-4)GlcNAc(b1-4)GlcNAc
Outline: as §1

[39] = biological target: Man(a1-3)[Man(a1-6)]Man(a1-6)[Man(a1-3)]Man
Outline: as §1

[40] = biological target: Man(a1-3)[Man(a1-6)]Man(a1-6)[Man(a1-3)]Man(b1-4)GlcNAc(b1-4)GlcNAc
Outline: as §1

[41] = biological target: Man(a1-3)[Man(a1-6)]Man(b1-4)GlcNAc(b1-4)GlcNAc
Outline: as §1

[42] = biological target: Man(a1-3)[Man(a1-6)]Man(b1-4)GlcNAc(b1-4)[Fuc(a1-6)]GlcNAc
Outline: as §1

[43] = biological target: Man(a1-6)Man
Outline: as §1

[44] = biological target: Man(b1-4)GlcNAc
Outline: as §1

[45] = biological target: MurNAc(b1-4)GlcNAc
Outline: as §1

B1: BIp1-His (Cryptococcus neoformans) (protein)
chain: MFTKIFVALFAATAVLSAPVESAEKRITHTGRATFYSPSVGIGACGWQNTDEELVVALNAPQYALNADHNCGQSVRITNEQNGNQEIAKVVDLCPGCNDGDLDMSPALFGALNNNDFDQGVFPISWNFLPRDDTSSSN
[1]
  glycan array binding signal (z-score): 0.882
[2]
  glycan array binding signal (z-score): 0.503
[3]
  glycan array binding signal (z-score): 0.405
[4]
  glycan array binding signal (z-score): -0.341
[5]
  glycan array binding signal (z-score): -0.259
[6]
  glycan array binding signal (z-score): -0.564
[7]
  glycan array binding signal (z-score): -0.36
[8]
  glycan array binding signal (z-score): -0.45
[9]
  glycan array binding signal (z-score): 0.039
[10]
  glycan array binding signal (z-score): -0.27
[11]
  glycan array binding signal (z-score): 0.278
[12]
  glycan array binding signal (z-score): -0.522
[13]
  glycan array binding signal (z-score): 0.256
[14]
  glycan array binding signal (z-score): -0.2
[15]
  glycan array binding signal (z-score): -0.349
[16]
  glycan array binding signal (z-score): 0.117
[17]
  glycan array binding signal (z-score): -0.558
[18]
  glycan array binding signal (z-score): -0.745
[19]
  glycan array binding signal (z-score): 0.155
[20]
  glycan array binding signal (z-score): -0.325
[21]
  glycan array binding signal (z-score): -0.035
[22]
  glycan array binding signal (z-score): 0.812
[23]
  glycan array binding signal (z-score): 0.398
[24]
  glycan array binding signal (z-score): -1.06
[25]
  glycan array binding signal (z-score): -0.674
[26]
  glycan array binding signal (z-score): 0.61
[27]
  glycan array binding signal (z-score): 0.895
[28]
  glycan array binding signal (z-score): 0.477
[29]
  glycan array binding signal (z-score): 0.218
[30]
  glycan array binding signal (z-score): -0.136
[31]
  glycan array binding signal (z-score): -1.59
[32]
  glycan array binding signal (z-score): 0.28
[33]
  glycan array binding signal (z-score): -0.399
[34]
  glycan array binding signal (z-score): -0.353
[35]
  glycan array binding signal (z-score): -0.355
[36]
  glycan array binding signal (z-score): -0.711
[37]
  glycan array binding signal (z-score): 0.728
[38]
  glycan array binding signal (z-score): 1.31
[39]
  glycan array binding signal (z-score): -0.668
[40]
  glycan array binding signal (z-score): 0.701
[41]
  glycan array binding signal (z-score): -0.137
[42]
  glycan array binding signal (z-score): -0.012
[43]
  glycan array binding signal (z-score): -0.201
[44]
  glycan array binding signal (z-score): 0.2
[45]
  glycan array binding signal (z-score): 0.736
